Measured values reported in article doi:10.1101/2024.07.03.601791.
Results are given in words; binding and its absence hold for the method and conditions named. A result given as binding can be weak or reduced; the word gives no strength.

Target: T1, PR20 modified with a dansyl group at the N-terminus (Dnc-PR20)
T1 sequence (peptide, dansyl group at the N-terminus): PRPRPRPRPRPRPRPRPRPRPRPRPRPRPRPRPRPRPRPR
Experiment: other fluorescence titration

binding: binds
Substance: CeKapβ2 (imb-2, Kapβ2 homolog in C. elegans)
